The values below come from US20190241895.

Data set [1] relates to secretory immunoglobulin A (sIgA) (Homo sapiens). Briefly: pull-down. The conditions noted are these: primer-bound SA beads control; purified native protein; protein details: MP Biomedicals Cappel Products cat 55905; label: 5' biotin; single-stranded DNA.
Data set [2] deals with secretory immunoglobulin A (sIgA) in saliva (Homo sapiens). Briefly: pull-down. The conditions noted are these: primer-bound SA beads control, saliva; protein in an extract; protein details: human saliva specimen, 90% final; label: 5' biotin; single-stranded DNA.

For at least one entry, the source does not settle the construct or the ends of the probe. No signal at the amounts used counts as a negative. For some assays here: Where cells or extracts were used, other partners may take part.

In the case of “GGATACCTTAACGCCGCCTATTG [biotinylated primer]”, the binding result in data set [1] and in data set [2] was “no binding” in each case.
